{"source": "patent US20140228318A1", "about": "“Curcumin formulations and methods for making such formulations” (Sanford Research/USD, priority 2010, published 2014)", "origin": "cited, not measured here", "conditions": "cited from earlier work", "data": [{"compound": "COc1cc(/C=C/C(=O)CC(=O)/C=C/c2ccc(O)c(OC)c2)ccc1O", "note": "[CUR, bis(4-hydroxy-3-methoxyphenyl)-1,6-diene-3,5-dione]", "values": [{"measurement": "pure CUR solubility in PBS solution", "setting": "PBS solution", "value": "~20", "unit": "µg/mL"}, {"measurement": "solubility in aqueous solution", "setting": "aqueous solution", "value": "≈ 20 μg/mL"}]}]}
